# Inconclusive means that the source gave no clear call. Such entries were picked first, then a sample of the others. For part of these data: Potencies of inconclusive entries are doubtful fits and often do not repeat. The source made the active and inactive calls. The call rests on the fitted dose curve; in most records, active means well fitted curve in the direction sought with a large enough effect; inconclusive means small, poorly fitted or top-dose-only effect, or another doubt; inactive means no such curve, though single readings can be large; an effect the other way counts as inactive or inconclusive.
# Legend:
# [1] = Quantitative highthroughput screen to assess conditional lethalithy of NOMO1 cells grown in RPMI1640 with untreated serum (RPMI+s) (AID 1963876); conditions: NOMO1 AML cells in RPMI+serum, CellTiter-Glo viability, 48 h; viability: at 45.8 µM (top of the series); further: nearly all actives have a fitted effect of over 35% in size
# Method in brief: (§1)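 Each medium arm—HPLM with 10% dialyzed FBS, or RPMI1640 with 5 mM glucose and 10% untreated or dialyzed FBS—was screened against an 11-point, 3-fold compound titration for 48 h at 37 °C, with CellTiter-Glo luminescence as endpoint.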
# [2] = Quantitative highthroughput screen to assess conditional lethalithy of NOMO1 cells grown in RPMI1640 with dialyzed fetal bovine serum (RPMI+ds) (AID 1963877); further: nearly all actives have a fitted effect of over 30% in size
# Method in brief: as §1
# [3] = Quantitative highthroughput screen to assess conditional lethalithy of NOMO1 cells grown in Human Plasma-Like Medium with dialyzed fetal bovine serum (HPLM+ds) (AID 1963878); conditions: NOMO1 AML cells in HPLM+ds, CellTiter-Glo viability, 48 h; viability: at 45.8 µM (top of the series); further: nearly all actives have a fitted effect of over 35% in size
# Method in brief: as §1
# [4] = Quantitative highthroughput screen to assess conditional lethalithy of P12 Ichikawa cells grown in Human Plasma-Like Medium with dialyzed fetal bovine serum (HPLM+ds) (AID 1963879); conditions: Potency: viability; further: nearly all actives have a fitted effect of over 35% in size
# Method in brief: as §1
# [5] = Quantitative highthroughput screen to assess conditional lethalithy of P12 Ichikawa cells grown in RPMI1640 with dialyzed fetal bovine serum (RPMI+ds) (AID 1963880); conditions: Potency: P12-Ichikawa viability; further: nearly all actives have a fitted effect of over 35% in size
# Method in brief: as §1
# [6] = Cellular viability qHTS for adrenocortical cancer (ACC) cell line SW-13 (AID 1963989); conditions: SW-13 ACC cells viability, CellTiter-Glo, 48 h; activity (max response): hits give low values; further: nearly all actives have a fitted effect of over 65% in size
# Method in brief: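 48 h treatment, SW-13 in ITS/DMEM serum-free; doses up to 46 uM; readout CellTiter-Glo luminescence; curve fit four-parameter logistic.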
# [7] = Quantitative highthroughput screen to assess conditional lethalithy of SEM cells grown in Human Plasma-Like Medium with dialyzed fetal bovine serum (HPLM+ds) (AID 1963882); further: nearly all actives have a fitted effect of over 35% in size
# Method in brief: as §1
# [8] = Quantitative highthroughput screen to assess conditional lethalithy of SEM cells grown in RPMI1640 with unreated serum (RPMI+s) (AID 1963883); conditions: SEM B-ALL cells, CellTiter-Glo viability, 48 h; viability: at 45.8 µM (top of the series); further: nearly all actives have a fitted effect of over 35% in size
# Method in brief: as §1
# [9] = Quantitative highthroughput screen to assess conditional lethalithy of P12 Ichikawa cells grown in RPMI1640 with untreated serum (RPMI+s) (AID 1963881); conditions: Potency: viability; further: nearly all actives have a fitted effect of over 35% in size
# Method in brief: as §1
# [10] = Quantitative highthroughput screen to assess conditional lethalithy of SEM cells grown in RPMI1640 with dialyzed fetal bovine serum (RPMI+ds) (AID 1963884); conditions: SEM B-ALL cells, RPMI+dialyzed FBS, CellTiter-Glo viability, 48 h; viability: at 45.8 µM (top of the series); further: nearly all actives have a fitted effect of over 35% in size
# Method in brief: as §1
# [11] = Cellular viability qHTS for adrenocortical cancer (ACC) cell line NCI-H295R (AID 1963990); conditions: CellTiter-Glo ATP luminescence, 48 h; series mostly up to 46.1 µM; further: nearly all actives have a fitted effect of over 60% in size
# Method in brief: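 Compound titrations (up to 46 uM final) are applied to NCI-H295R cultures for 48 h at 37C. Viable cell number is estimated by CellTiter-Glo signal, normalised to DMSO and doxorubicin controls.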
# Potency means the concentration at half of the fitted maximal effect.
Structure (SMILES),Potency [1],Potency [2],Potency [3],Potency [4],Potency [5],Potency [6],Potency [7],Potency [8],Potency [9],Potency [10],Potency [11]
CNC(=O)c1ccccc1Nc1nc(Nc2ccc(N3CCOCC3)cc2OC)ncc1Cl,"inconclusive: 4.69 µM [cytotoxic, full curve]","inconclusive: 2.09 µM [cytotoxic, full curve]","inconclusive: 2.64 µM [cytotoxic, full curve]",active: 8.33 µM,"inconclusive: 8.33 µM [cytotoxic, full curve]",active: 5.62 µM,–,–,–,–,–
C[C@@H](O[C@H]1OCCN(Cc2n[nH]c(=O)[nH]2)[C@@H]1c1ccc(F)cc1)c1cc(C(F)(F)F)cc(C(F)(F)F)c1,"inconclusive: 37.2 µM [cytotoxic, single point]","inconclusive: 37.2 µM [cytotoxic, single point]","inconclusive: 33.2 µM [cytotoxic, single point]","inconclusive: 26.4 µM [cytotoxic, single point]","inconclusive: 37.2 µM [cytotoxic, single point]",–,"inconclusive: 20.9 µM [cytotoxic, partial curve]","inconclusive: 23.5 µM [cytotoxic, partial curve]",–,–,–
FC(F)(F)c1ccc(CNc2ccc(Cc3c[nH]c4ncc(Cl)cc34)cn2)cn1,active: 2.34 µM,"inconclusive: 2.09 µM [cytotoxic, full curve]","inconclusive: 0.0066 µM [cytotoxic, full curve, poor fit]",active: 0.295 µM,active: 3.31 µM,"inconclusive: 35.5 µM [cytotoxic, single point]",–,–,–,–,–
CNC(=O)c1ccccc1Sc1ccc2c(C=Cc3ccccn3)n[nH]c2c1,active: 2.35 µM,"inconclusive: 1.05 µM [cytotoxic, full curve, poor fit]",active: 4.18 µM,–,"inconclusive: 7.43 µM [cytotoxic, full curve]",–,"inconclusive: 5.9 µM [cytotoxic, full curve]",active: 5.26 µM,"inconclusive: 6.62 µM [cytotoxic, full curve]",–,–
O=C(O)C=Cc1ccc(O)c(O)c1,"inconclusive: 37.2 µM [cytotoxic, partial curve, poor fit]","inconclusive: 37.2 µM [cytotoxic, single point]","inconclusive: 20.9 µM [cytotoxic, single point]",active: 26.4 µM,–,–,"inconclusive: 20.9 µM [cytotoxic, partial curve]",–,"inconclusive: 29.6 µM [cytotoxic, single point]",–,–
CC(C)(O)CC(=O)NCCn1ccc2ncnc(Nc3ccc(Oc4cccc(C(F)(F)F)c4)c(Cl)c3)c21,"inconclusive: 18.7 µM [cytotoxic, partial curve]","inconclusive: 16.6 µM [cytotoxic, partial curve]","inconclusive: 14.8 µM [cytotoxic, partial curve]",–,"inconclusive: 13.2 µM [cytotoxic, partial curve]",active: 14.1 µM,"inconclusive: 18.7 µM [cytotoxic, partial curve]",–,"inconclusive: 14.8 µM [cytotoxic, partial curve]","inconclusive: 16.6 µM [cytotoxic, partial curve]",active: 8.91 µM
OC(c1cc(C(F)(F)F)nc2c(C(F)(F)F)cccc12)C1CCCCN1 (configuration not stated),"inconclusive: 33.2 µM [cytotoxic, single point]","inconclusive: 29.6 µM [cytotoxic, single point]",active: 23.5 µM,–,"inconclusive: 37.2 µM [cytotoxic, single point]",active: 22.4 µM,"inconclusive: 37.2 µM [cytotoxic, single point]","inconclusive: 23.5 µM [cytotoxic, partial curve, poor fit]","inconclusive: 20.9 µM [cytotoxic, partial curve]","inconclusive: 37.2 µM [cytotoxic, partial curve, poor fit]",active: 25.1 µM
COc1cc(CNC(=O)CCCCC=CC(C)C)ccc1O,"inconclusive: 0.935 µM [cytotoxic, full curve]","inconclusive: 0.935 µM [cytotoxic, full curve]","inconclusive: 1.05 µM [cytotoxic, full curve]",active: 0.332 µM,–,–,"inconclusive: 0.833 µM [cytotoxic, full curve]",–,–,"inconclusive: 0.833 µM [cytotoxic, full curve]",–
